Test results reported in article PMC4646403.
These are yes or no findings as the source states them, for the method shown. Binding seen in cells or lysates may run through a third protein. A result given as binding can be weak or reduced; the word gives no strength.

Amino acid sequences for entries named in this document (tags omitted). A change or cut given only in a name is not applied to a line headed by its entry.
UniProt Q383P6: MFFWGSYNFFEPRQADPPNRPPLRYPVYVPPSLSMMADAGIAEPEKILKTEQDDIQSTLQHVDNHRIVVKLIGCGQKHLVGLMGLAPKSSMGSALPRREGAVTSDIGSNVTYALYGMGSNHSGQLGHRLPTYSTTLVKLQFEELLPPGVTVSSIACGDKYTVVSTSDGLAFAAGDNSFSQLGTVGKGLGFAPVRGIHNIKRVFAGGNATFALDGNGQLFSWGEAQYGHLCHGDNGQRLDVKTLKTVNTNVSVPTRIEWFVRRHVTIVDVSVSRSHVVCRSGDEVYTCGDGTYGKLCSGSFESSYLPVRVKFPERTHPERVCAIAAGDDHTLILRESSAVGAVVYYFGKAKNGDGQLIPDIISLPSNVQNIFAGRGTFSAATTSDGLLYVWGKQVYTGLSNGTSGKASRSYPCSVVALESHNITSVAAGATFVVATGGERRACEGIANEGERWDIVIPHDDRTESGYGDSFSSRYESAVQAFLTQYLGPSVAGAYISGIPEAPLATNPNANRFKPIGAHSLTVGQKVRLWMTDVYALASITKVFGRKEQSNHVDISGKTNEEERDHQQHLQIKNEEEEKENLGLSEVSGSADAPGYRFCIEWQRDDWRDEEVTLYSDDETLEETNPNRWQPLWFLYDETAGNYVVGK
UniProt Q57VV2: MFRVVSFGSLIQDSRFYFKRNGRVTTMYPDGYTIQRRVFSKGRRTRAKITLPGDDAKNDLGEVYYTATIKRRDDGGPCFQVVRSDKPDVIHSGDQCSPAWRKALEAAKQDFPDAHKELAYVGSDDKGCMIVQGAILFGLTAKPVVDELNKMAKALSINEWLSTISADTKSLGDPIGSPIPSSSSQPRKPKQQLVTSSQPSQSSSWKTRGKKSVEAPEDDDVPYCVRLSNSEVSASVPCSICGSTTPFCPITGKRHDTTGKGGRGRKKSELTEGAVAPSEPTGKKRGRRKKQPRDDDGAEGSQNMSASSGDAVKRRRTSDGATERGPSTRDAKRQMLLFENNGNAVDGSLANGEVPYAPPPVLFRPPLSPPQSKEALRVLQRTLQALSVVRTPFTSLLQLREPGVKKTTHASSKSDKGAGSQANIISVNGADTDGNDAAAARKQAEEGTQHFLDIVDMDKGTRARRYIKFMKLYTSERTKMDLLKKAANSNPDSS
UniProt Q585S8: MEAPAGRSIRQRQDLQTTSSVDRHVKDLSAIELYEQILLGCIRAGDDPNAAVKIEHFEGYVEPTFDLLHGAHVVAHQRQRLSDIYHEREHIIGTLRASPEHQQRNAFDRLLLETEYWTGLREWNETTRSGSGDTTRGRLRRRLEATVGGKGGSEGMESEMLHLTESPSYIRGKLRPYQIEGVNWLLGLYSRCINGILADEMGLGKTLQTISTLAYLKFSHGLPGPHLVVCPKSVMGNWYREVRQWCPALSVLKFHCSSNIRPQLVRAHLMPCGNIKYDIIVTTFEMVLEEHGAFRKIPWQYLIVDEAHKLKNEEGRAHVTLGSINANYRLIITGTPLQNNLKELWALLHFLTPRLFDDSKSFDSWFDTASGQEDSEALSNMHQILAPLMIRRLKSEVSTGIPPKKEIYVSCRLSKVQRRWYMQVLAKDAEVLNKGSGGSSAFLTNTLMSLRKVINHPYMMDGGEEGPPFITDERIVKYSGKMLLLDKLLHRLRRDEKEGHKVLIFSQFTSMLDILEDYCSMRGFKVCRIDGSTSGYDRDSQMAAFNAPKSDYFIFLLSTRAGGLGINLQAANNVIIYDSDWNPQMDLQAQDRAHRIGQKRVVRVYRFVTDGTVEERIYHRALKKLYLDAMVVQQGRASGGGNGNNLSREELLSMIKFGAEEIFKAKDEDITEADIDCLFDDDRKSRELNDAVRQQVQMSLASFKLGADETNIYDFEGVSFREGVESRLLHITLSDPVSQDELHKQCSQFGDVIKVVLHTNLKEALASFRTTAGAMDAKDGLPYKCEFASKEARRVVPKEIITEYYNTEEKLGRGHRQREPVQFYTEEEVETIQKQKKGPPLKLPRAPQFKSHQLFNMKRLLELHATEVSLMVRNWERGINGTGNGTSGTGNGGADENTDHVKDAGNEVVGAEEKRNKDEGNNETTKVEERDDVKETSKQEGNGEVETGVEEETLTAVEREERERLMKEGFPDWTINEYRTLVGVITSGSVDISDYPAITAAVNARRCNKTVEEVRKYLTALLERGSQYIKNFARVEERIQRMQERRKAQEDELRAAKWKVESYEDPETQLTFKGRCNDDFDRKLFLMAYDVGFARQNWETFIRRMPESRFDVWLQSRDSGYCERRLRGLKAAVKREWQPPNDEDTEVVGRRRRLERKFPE
UniProt Q38B59: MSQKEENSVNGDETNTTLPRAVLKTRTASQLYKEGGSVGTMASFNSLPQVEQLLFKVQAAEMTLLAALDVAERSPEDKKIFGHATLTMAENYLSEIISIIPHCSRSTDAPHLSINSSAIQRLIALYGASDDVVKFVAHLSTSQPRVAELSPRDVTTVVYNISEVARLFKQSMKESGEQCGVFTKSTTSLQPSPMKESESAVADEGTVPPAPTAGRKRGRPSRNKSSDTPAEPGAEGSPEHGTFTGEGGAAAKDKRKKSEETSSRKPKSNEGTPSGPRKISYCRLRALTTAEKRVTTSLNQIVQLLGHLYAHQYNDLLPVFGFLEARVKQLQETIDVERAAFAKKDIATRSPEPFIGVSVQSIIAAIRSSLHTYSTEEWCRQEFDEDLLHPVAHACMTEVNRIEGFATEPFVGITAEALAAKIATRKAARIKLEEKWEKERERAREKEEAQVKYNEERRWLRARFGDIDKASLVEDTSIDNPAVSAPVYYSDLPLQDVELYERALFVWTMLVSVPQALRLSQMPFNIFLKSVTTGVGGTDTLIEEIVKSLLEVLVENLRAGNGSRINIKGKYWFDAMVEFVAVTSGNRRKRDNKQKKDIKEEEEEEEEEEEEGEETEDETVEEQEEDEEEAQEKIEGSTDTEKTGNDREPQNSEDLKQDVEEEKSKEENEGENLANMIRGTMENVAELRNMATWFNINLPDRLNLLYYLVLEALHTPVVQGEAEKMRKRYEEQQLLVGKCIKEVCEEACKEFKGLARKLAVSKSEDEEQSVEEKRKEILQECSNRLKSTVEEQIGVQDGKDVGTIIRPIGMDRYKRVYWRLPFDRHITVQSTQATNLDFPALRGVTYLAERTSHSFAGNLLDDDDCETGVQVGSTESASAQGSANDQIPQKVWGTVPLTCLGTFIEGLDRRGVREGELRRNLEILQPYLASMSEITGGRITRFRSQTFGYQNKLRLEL

Tests used:
[1] = biological target: RCCP tagged at the C terminus with a triple HA epitope (Trypanosoma brucei brucei 427) (UniProt Q383P6); test: co-IP; procyclic form T. brucei extracts with 0.1% Nonidet P-40; monoclonal anti-Myc or anti-HA on Sepharose CL-4B columns, 2 h at 4 °C, 150 mM KCl, HEPES-KOH pH 7.7; Western blot
[2] = biological target: FYRP tagged at the C terminus with a triple Myc epitope (Trypanosoma brucei brucei 427) (UniProt Q57VV2); test: co-IP; bloodstream form T. brucei 221GP1(VO2+) extracts with 0.1% Nonidet P-40; monoclonal anti-Myc or anti-HA on Sepharose CL-4B columns, 2 h at 4 °C, 150 mM KCl, HEPES-KOH pH 7.7; Western blot
[3] = biological target: FYRP tagged at the C terminus with a triple Myc epitope (Trypanosoma brucei brucei 427) (UniProt Q57VV2); test: co-IP; procyclic form T. brucei extracts with 0.1% Nonidet P-40; monoclonal anti-Myc or anti-HA on Sepharose CL-4B columns, 2 h at 4 °C, 150 mM KCl, HEPES-KOH pH 7.7; Western blot
[4] = biological target: TbISWI tagged at the C terminus with a triple Myc epitope (Trypanosoma brucei brucei 427) (UniProt Q585S8); test: as above
[5] = biological target: NLP tagged at the C terminus with a triple HA epitope (Trypanosoma brucei brucei 427) (UniProt Q38B59); test: as above
[6] = biological target: RCCP tagged at the C terminus with a triple HA epitope (Trypanosoma brucei brucei 427) (UniProt Q383P6); test: co-IP; bloodstream form T. brucei 221GP1(VO2+) extracts with 0.1% Nonidet P-40; monoclonal anti-Myc or anti-HA on Sepharose CL-4B columns, 2 h at 4 °C, 150 mM KCl, HEPES-KOH pH 7.7; Western blot

| Substance | binding [1] | binding [6] | further results |
| --- | --- | --- | --- |
| TbISWI tagged at the C terminus with a triple Myc epitope (from UniProt Q585S8) | binds |  |  |
| RCCP tagged at the C terminus with a triple HA epitope (from UniProt Q383P6) |  |  | binding [2]: binds; binding [3]: binds; binding [4]: binds |
| RCCP tagged at the C terminus with a triple Myc epitope (from UniProt Q383P6) |  |  | binding [5]: binds |
| FYRP tagged at the C terminus with a triple Myc epitope (from UniProt Q57VV2) | binds | binds |  |
| TbISWI (untagged, endogenous) (from UniProt Q585S8) |  | binds |  |
